“Also recorded” adds a separate entry of the source. At least one structure is not confirmed: it was looked up by name or label, or the drawing left a doubt.
What was measured:
[1] = system: MMP-1; experiment: Clinical phase II study: MMP-1 plasma concentration; format: in vivo, human; details: subgroup GDF-15 ≥1000 ng/L; across all dosing groups
[2] = system: HDL/LDL ratio; experiment: Clinical phase II study: HDL/LDL ratio; format: in vivo, human; details: subgroup GDF-15 ≥1000 ng/L
[3] = system: PTX-3; experiment: LDLr−/− mice on high fat diet: circulating PTX-3; format: in vivo; details: HFD 12 weeks, compared with standard chow controls, Compound-02 120 mg/kg/d, OMACOR 4 g/kg/d, 120 mg/kg/day
[4] = system: HbA1c; experiment: Clinical phase II study: HbA1c; format: in vivo, human; details: subgroup GDF-15 ≥1000 ng/L
[5] = system: NT-proBNP; experiment: Clinical phase II study: NT-proBNP plasma concentration; format: in vivo, human; details: subgroup GDF-15 ≥1000 ng/L; across all dosing groups
[6] = system: hs-CRP; experiment: Clinical phase II study: hs-CRP plasma concentration; format: in vivo, human
[7] = system: GDF-15; experiment: Clinical phase II study: GDF-15 plasma concentration (sandwich ELISA); format: in vivo, human
Description: (§1) In a clinical phase II study 119 patients with persistent atrial fibrillation were investigated with regard to the effect of treatment with Compound-02 (structure of general formula (VI)). The patients were divided into a placebo group and three treatment groups with different dosing of Compound-02. The low, medium and high dosing groups received an oral once daily dosing of 4 mg, 12 mg or 24 mg of Compound-02, respectively.
(§2) The study participants received an implantable cardiac monitor (ICM) at least one week prior to start of treatment with Compound-02. The treatment with Compound-02 was maintained for a total period of three months (i.e. Day 1 to Day 99) and started at least 1 week prior to direct current cardioversion (DCC) (see FIG. 1 for details of study protocol).
(§3) Plasma samples were taken from the patients at different study visits. Biomarkers were analyzed at baseline (V3) and at the end of treatment (V8). For 119 study participants complete sets of biomarkers could be obtained.
GDF-15 concentrations were measured in EDTA treated plasma samples with a solid phase sandwich ELISA (Human GDF-15 Quantikine ELISA kit, R&D Systems) using an immobilized mouse monoclonal anti-GDF-15 and a horseradish peroxidase-conjugated monoclonal anti-GDF-15 antibody. The substrates for the enzymatic reaction are hydrogen peroxide and tetramethylbenzidine. The reaction is stopped by the addition of sulfuric acid. The reaction product is measured spectrophotometrically at 450 nm (Sunrise Absorbance Reader, TECAN).

[8] = system: patients with persistent atrial fibrillation; experiment: Clinical phase II study: AF recurrence after electrical cardioversion; format: in vivo, human; details: subgroup GDF-15 ≥1000 ng/L; oral once daily 4, 12 or 24 mg
[9] = system: MMP-9; experiment: Clinical phase II study: MMP-9 plasma concentration; format: in vivo, human; details: subgroup GDF-15 ≥1000 ng/L; across all dosing groups
[10] = system: IL-6; experiment: Clinical phase II study: IL-6 plasma concentration; format: in vivo, human
Description: as §1, §2, §3

[11] = system: PTX-3; experiment: Clinical phase II study: PTX-3 plasma concentration; format: in vivo, human
Description: as §1, §2, §3

[12] = subgroup GDF-15 ≥1000 ng/L, across all dosing groups
[13] = 119 study participants with complete sets of biomarkers

SMILES: CNC(=O)C(=O)NCCCC/C=C\CCCCCCCOCC(=O)O [Compound-02]
- MMP-1 plasma concentration at end of treatment [1]: significant reduction; also recorded: significant decrease
- HDL/LDL ratio [2]: improvement
- circulating levels of PTX-3 [3]: prevented an increase; also recorded: did not show an increase
- HbA1c, baseline (V3) vs end of treatment (V8) [4]: decrease
- NT-proBNP plasma concentration at end of treatment [5]: significant reduction; also recorded: significant decrease
- changes in hsCRP plasma concentration ([6]; baseline to end-of-treatment (3 months), FIG. 10): reduced hsCRP plasma concentration significantly
- hs-CRP plasma concentration at end of treatment [6, 12]: significant reduction; also recorded: significant decrease
- GDF-15, baseline (V3) vs end of treatment (V8) [7, 13]: significantly reduced
- GDF-15 plasma concentration, baseline (V3) vs end of treatment (V8) ([7]; patient subgroup with baseline GDF-15 <1000 ng/L): did not show a significant change
- GDF-15 plasma concentration, baseline (V3) vs end of treatment (V8) ([7]; patient subgroup with baseline GDF-15 ≥1000 ng/L, compared to placebo, oral once daily 4, 12 or 24 mg, 3 months): significantly reduced; also recorded: significant decrease
- atrial fibrillation (AF) recurrence after electrical cardioversion [8]: dose-dependently reduced; also recorded: significant reduction
- MMP-9 plasma concentration at end of treatment [9]: significant reduction; also recorded: significant decrease
- IL-6, baseline (V3) vs end of treatment (V8) [10, 13]: significantly reduced; also recorded: lowered
- IL-6 plasma concentration at end of treatment [10, 12]: significant reduction; also recorded: significant decrease
- PTX-3, baseline (V3) vs end of treatment (V8) [11, 13]: significantly reduced
- PTX-3 plasma concentration at end of treatment [11, 12]: significant reduction; also recorded: significant decrease

Source: patent US20250319054A1, “Synthetic Eicosanoid Analogues for the Treatment and Prevention of Diseases Associated with Increased GDF15 Plasma Concentration” (OMEICOS Therapeutics GmbH, priority 2021, published 2025)
